Source: the supplement of paper PMC10849652
The other results are listed elsewhere or left out.

By UniProt entry, the sequences of proteins in these tests, tags left out. Where a name states a change or a piece, a line headed by the entry shows the natural chain unless it says otherwise.
UniProt Q15628: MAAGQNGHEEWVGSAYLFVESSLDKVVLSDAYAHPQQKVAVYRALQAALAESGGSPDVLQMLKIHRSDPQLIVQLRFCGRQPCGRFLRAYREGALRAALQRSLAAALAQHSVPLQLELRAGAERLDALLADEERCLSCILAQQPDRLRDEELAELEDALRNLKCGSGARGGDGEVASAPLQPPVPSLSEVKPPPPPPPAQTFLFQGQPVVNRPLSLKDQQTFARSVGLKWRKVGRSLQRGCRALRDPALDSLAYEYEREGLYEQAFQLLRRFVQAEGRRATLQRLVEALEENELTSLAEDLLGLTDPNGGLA
UniProt Q5SWH9: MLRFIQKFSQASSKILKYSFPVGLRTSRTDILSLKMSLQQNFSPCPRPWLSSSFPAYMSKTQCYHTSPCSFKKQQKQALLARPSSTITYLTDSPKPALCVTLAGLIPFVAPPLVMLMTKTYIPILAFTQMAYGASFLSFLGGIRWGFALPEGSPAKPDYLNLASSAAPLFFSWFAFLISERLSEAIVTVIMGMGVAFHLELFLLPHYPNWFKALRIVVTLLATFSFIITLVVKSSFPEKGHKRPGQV
UniProt Q9H4I3: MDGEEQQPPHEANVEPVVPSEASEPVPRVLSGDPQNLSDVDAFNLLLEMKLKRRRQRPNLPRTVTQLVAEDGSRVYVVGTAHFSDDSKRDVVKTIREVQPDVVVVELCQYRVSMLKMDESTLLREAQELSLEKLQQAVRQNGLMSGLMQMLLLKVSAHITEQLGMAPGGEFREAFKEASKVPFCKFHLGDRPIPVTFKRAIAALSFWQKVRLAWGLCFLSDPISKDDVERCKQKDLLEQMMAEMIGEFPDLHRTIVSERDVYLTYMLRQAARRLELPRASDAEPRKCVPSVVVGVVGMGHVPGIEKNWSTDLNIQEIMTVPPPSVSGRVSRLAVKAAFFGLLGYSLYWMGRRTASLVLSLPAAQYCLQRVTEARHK
UniProt P82094: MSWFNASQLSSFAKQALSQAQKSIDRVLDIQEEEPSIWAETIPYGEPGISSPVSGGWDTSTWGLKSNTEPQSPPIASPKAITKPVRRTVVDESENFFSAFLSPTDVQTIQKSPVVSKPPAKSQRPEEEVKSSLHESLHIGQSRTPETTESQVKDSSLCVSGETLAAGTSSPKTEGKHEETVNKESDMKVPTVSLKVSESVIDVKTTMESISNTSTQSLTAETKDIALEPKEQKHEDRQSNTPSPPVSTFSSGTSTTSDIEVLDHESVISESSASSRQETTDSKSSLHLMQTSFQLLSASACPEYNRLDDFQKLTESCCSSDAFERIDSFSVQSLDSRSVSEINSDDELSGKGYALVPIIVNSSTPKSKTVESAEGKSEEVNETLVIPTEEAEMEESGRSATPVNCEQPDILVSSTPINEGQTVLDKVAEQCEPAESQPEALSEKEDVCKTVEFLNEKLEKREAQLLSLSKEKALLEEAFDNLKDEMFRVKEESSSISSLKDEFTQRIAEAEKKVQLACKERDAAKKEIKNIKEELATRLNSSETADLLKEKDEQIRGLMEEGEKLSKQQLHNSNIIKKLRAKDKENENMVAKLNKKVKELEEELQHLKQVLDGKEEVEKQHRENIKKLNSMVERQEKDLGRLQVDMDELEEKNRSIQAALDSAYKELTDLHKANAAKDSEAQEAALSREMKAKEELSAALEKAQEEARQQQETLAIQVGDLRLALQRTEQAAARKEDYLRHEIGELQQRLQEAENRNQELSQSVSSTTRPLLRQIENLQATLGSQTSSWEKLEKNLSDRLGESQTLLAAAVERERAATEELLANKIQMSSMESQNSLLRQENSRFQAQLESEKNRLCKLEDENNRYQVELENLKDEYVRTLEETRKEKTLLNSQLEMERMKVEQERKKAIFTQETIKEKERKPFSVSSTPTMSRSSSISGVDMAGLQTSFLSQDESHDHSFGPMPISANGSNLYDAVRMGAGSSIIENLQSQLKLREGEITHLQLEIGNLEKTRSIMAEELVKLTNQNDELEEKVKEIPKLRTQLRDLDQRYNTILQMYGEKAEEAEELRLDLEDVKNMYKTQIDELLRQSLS
UniProt Q96JJ7: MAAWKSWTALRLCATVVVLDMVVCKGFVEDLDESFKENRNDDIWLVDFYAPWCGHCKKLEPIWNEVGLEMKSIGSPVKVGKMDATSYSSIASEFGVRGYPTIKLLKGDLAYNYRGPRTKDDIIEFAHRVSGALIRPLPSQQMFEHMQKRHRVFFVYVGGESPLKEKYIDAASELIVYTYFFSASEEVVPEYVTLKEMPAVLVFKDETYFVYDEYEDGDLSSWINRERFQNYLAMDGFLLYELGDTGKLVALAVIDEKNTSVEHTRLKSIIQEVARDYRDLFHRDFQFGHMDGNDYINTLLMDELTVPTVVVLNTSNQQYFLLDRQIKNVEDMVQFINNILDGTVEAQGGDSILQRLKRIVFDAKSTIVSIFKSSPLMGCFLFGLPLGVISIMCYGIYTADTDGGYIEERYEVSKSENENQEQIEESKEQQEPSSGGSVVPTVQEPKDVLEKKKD
UniProt Q96S44: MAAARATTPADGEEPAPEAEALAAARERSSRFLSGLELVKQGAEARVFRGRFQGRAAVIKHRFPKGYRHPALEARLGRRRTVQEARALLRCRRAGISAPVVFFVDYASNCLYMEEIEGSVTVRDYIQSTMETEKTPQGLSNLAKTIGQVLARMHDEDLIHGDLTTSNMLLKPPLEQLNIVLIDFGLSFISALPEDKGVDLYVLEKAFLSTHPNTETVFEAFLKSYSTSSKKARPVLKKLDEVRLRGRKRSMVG
UniProt P02585, whole entry, looked up: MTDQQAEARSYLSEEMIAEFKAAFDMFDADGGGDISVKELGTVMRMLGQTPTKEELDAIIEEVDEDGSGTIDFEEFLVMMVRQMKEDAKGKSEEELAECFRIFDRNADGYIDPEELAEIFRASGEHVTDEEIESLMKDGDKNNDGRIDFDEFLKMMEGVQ
UniProt Q15388, whole entry, looked up: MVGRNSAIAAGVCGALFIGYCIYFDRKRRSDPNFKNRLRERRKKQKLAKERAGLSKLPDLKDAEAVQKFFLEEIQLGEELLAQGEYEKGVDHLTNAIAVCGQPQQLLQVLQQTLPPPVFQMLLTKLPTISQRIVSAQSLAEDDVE
UniProt Q8N511: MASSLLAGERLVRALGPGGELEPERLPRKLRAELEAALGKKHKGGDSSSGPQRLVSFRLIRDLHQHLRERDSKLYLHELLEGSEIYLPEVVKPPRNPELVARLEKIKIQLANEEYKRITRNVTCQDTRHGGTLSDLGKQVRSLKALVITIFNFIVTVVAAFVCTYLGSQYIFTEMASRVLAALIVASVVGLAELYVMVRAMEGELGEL
UniProt Q0P6H9: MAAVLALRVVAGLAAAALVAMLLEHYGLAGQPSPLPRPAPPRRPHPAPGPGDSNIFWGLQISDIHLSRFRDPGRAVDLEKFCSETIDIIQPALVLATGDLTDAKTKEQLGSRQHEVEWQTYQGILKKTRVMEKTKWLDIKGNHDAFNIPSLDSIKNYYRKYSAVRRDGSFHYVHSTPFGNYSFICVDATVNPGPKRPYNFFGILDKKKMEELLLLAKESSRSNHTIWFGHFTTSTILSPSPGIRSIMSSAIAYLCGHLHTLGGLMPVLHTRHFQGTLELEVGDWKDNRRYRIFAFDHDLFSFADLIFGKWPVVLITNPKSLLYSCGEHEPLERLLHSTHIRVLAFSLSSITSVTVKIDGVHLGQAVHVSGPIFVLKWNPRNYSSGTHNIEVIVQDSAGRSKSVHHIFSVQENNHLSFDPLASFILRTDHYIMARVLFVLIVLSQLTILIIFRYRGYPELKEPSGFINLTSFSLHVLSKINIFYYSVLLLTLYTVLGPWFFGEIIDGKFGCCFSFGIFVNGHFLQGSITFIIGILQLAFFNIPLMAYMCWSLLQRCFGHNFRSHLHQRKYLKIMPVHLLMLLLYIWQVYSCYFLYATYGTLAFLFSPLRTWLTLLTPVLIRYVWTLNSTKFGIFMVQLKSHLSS
UniProt P60174, whole entry, looked up: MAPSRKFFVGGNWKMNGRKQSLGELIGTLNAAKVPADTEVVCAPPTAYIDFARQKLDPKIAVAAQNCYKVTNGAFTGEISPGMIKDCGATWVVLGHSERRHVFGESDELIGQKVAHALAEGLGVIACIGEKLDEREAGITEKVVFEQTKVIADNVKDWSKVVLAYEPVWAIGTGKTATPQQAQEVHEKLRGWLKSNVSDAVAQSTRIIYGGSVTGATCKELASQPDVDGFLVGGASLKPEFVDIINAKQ
UniProt P20333, whole entry, looked up: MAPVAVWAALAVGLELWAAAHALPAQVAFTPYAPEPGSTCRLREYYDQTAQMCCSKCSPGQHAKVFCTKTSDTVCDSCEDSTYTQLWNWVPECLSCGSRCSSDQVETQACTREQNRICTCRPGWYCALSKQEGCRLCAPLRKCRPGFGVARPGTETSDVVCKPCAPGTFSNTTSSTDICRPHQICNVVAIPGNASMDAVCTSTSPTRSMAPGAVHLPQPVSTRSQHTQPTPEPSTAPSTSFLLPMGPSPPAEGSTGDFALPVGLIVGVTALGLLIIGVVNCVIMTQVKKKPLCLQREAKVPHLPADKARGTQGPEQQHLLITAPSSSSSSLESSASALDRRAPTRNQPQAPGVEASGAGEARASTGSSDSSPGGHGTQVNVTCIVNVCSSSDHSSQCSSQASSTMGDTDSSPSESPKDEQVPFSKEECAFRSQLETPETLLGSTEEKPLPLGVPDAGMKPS
UniProt Q59H18: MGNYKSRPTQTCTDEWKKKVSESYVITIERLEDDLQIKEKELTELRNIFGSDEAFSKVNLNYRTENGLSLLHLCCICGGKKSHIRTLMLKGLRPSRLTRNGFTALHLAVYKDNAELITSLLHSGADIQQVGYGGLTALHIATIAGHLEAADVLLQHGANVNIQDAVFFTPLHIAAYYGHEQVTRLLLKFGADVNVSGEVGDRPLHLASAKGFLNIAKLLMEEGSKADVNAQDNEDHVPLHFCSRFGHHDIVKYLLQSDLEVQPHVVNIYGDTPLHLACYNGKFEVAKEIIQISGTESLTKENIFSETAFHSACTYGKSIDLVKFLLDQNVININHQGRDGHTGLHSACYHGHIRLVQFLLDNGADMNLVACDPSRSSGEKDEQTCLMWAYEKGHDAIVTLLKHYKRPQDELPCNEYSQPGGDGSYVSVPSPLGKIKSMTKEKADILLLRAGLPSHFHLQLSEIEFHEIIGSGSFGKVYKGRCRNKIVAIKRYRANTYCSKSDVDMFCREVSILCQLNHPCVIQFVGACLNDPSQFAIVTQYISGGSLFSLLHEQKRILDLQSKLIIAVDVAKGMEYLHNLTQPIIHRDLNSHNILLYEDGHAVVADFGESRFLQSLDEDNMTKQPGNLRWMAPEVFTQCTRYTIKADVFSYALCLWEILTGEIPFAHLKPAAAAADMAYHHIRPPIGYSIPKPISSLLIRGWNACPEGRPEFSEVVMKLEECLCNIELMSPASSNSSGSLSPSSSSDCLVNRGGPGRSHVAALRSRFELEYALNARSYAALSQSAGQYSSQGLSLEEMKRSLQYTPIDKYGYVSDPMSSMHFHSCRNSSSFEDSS
UniProt Q53FA7: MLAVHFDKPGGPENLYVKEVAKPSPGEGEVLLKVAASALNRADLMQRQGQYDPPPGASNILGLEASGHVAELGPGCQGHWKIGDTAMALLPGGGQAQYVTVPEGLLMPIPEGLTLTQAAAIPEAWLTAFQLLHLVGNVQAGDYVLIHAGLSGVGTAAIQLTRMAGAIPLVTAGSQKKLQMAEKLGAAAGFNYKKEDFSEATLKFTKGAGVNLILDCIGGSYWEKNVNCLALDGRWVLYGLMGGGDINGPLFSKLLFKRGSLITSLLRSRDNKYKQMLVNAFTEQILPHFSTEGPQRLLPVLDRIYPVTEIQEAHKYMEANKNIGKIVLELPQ
UniProt O75674: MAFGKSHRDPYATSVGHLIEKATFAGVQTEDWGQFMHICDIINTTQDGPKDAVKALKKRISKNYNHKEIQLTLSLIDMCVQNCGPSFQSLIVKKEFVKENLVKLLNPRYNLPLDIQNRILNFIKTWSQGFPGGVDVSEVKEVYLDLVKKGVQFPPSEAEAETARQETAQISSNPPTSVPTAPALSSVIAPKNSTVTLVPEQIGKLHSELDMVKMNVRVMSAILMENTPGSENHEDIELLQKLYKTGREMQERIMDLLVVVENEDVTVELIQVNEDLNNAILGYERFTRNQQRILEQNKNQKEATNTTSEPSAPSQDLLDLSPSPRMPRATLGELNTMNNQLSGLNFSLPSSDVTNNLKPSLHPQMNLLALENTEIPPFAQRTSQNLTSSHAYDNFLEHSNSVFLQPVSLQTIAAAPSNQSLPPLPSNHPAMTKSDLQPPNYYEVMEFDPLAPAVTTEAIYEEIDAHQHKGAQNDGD
UniProt O14657: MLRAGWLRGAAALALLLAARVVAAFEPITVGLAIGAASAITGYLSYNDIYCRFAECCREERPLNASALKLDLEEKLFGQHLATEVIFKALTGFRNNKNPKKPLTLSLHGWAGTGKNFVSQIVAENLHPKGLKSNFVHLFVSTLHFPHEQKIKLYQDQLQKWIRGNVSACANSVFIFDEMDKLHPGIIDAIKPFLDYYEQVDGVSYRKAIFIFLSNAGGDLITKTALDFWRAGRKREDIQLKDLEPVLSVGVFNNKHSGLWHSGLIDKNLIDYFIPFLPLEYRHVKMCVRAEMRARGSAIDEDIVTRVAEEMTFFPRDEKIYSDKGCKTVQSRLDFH

Legend:
Assay in all cases: log2 fold change, soluble protein after heating vs DMSO (PISA); higher = thermal stabilisation; K562 lysate, 10 uM; active = over 0.2 and 3.5 SD of the protein, either way, in both replicates (recomputed)
[1] = compound: NCC(=O)Nc1ccc(-n2nc(C(F)(F)F)cc2-c2ccc3c(ccc4ccccc43)c2)cc1
Outline: (§1)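 Values give the log-two fold change in thermal stability against solvent controls, from duplicates. Crude K562 extract at 1 mg/mL protein, made by dounce homogenisation in PBS pH 7.4 with 1 mM MgCl2, was treated with 10 μM compound for 30 min. After 3 min heating across 48°C-58°C, aliquots were pooled, adjusted to 0.5% NP-40 at 4°C and centrifuged at 21,000xg for 90 min. The supernatant was measured by TMTpro 16plex LC-MS/MS with channel sums equalised.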

[2] = compound: O=C(CCCCCCC(=O)Nc1ccccc1)NO [vorinostat]
Outline: as §1

[3] = compound: O=C(O)c1ccc2c(c1)nc(Nc1cccc(Cl)c1)c1ccncc12 [silmitasertib]
Outline: as §1

[4] = compound: O=C1NC(=O)C(c2cnc3ccccn23)=C1c1cn2c3c(cc(F)cc13)CN(C(=O)N1CCCCC1)CC2
Outline: as §1

[5] = compound: c1cn2cc(-c3ccc4cn[nH]c4c3)nc(Nc3ccc(N4CCOCC4)cc3)c2n1 [entospletinib]
Outline: as §1

| Target | log2 fold change [1] | log2 fold change [2] | log2 fold change [3] | log2 fold change [4] | log2 fold change [5] |
| --- | --- | --- | --- | --- | --- |
| TRADD (UniProt Q15628) | inactive: 0.034 | inactive: -0.284 | inactive: 0.021 | inactive: -0.029 | inactive: 0.059 |
| TNIP2 (UniProt Q8NFZ5) | inactive: 0.214 | inactive: -0.015 | inactive: 0.009 | inactive: 0.096 | inactive: 0.068 |
| TMEM69 (UniProt Q5SWH9) | inactive: -0.111 | inactive: -0.042 | inactive: -0.089 | inactive: 0.05 | inactive: 0.115 |
| TMEM41A (UniProt Q96HV5) | inactive: 0.069 | inactive: 0.08 | inactive: -0.034 | inactive: -0.094 | inactive: 0.041 |
| TRABD (UniProt Q9H4I3) | inactive: -0.036 | inactive: -0.047 | inactive: 0.114 | inactive: -0.028 | inactive: 0.02 |
| TPP2 (UniProt P29144) | inactive: -0.015 | inactive: -0.121 | inactive: 0.02 | inactive: -0.011 | inactive: 0.003 |
| TNFRSF10A (UniProt O00220) | inactive: -0.003 | inactive: 0.086 | inactive: 0.009 | inactive: -0.01 | inactive: 0.05 |
| TMEM259 (UniProt Q4ZIN3) | inactive: -0.011 | inactive: -0.102 | inactive: 0.154 | inactive: 0.004 | inactive: 0.013 |
| TMF1 isoform 2 (UniProt P82094) | inactive: 0.004 | inactive: 0.094 | inactive: -0.001 | inactive: 0.006 | inactive: -0.016 |
| TNKS (UniProt O95271) | inactive: -0.009 | inactive: -0.1 | inactive: 0.06 | inactive: -0.001 | inactive: -0.085 |
| TMEM63B (UniProt Q5T3F8) | inactive: 0.009 | inactive: 0.143 | inactive: 0.009 | inactive: 0.001 | inactive: -0.03 |
| TMX3 (UniProt Q96JJ7) | inactive: 0.025 | inactive: 0.128 | inactive: -0.009 | inactive: -0.008 | inactive: 0.027 |
| TNRC6A (UniProt Q8NDV7) | inactive: 0.013 | inactive: 0.165 | inactive: 0.001 | inactive: -0.058 | inactive: 0.022 |
| TP53RK (UniProt Q96S44) | inactive: -0.017 | inactive: 0.049 | inactive: -0.19 | inactive: -0.014 | inactive: 0.031 |
| TNFRSF10B (UniProt O14763) | inactive: 0.046 | inactive: 0.134 | inactive: 0.032 | inactive: 0.007 | inactive: 0.043 |
| TMEM94 isoform 2 (UniProt Q12767) | inactive: 0.084 | inactive: -0.093 | inactive: 0.091 | inactive: 0.045 | inactive: 0.081 |
| TNNC2 (UniProt P02585) | inactive: -0.039 | inactive: 0.126 | inactive: -0.05 | inactive: -0.041 | inactive: -0.076 |
| TOP3B (UniProt O95985) | inactive: 0.046 | inactive: -0.054 | inactive: 0.009 | inactive: 0.018 | inactive: 0.012 |
| TOMM20 (UniProt Q15388) | inactive: -0.057 | inactive: 0.155 | inactive: 0.002 | inactive: 0.068 | inactive: -0.029 |
| TOM1L2 (UniProt Q6ZVM7) | inactive: -0.029 | inactive: 0.059 | inactive: -0.013 | inactive: -0.006 | inactive: 0.017 |
| TMEM263 (UniProt Q8WUH6) | inactive: 0.053 | inactive: 0.289 | inactive: -0.15 | inactive: -0.113 | inactive: -0.034 |
| TMOD1 (UniProt P28289) | inactive: 0.005 | active: -0.312 | inactive: 0.02 | inactive: -0.005 | inactive: 0.01 |
| TMEM214 (UniProt Q6NUQ4) | inactive: 0.045 | inactive: -0.04 | inactive: 0.081 | inactive: 0.029 | inactive: 0.042 |
| TMEM65 (UniProt Q6PI78) | inactive: -0.042 | inactive: 0.131 | inactive: 0.016 | inactive: -0.024 | inactive: -0.04 |
| TPMT (UniProt P51580) | inactive: 0.005 | inactive: -0.037 | inactive: 0.034 | inactive: -0.032 | inactive: -0.012 |
| TP53BP1 isoform 2 (UniProt Q12888) | inactive: -0.024 | inactive: -0.018 | inactive: 0.019 | inactive: -0.001 | inactive: -0.021 |
| TMEM199 (UniProt Q8N511) | inactive: 0.021 | inactive: 0.13 | inactive: -0.017 | inactive: -0.005 | inactive: 0.008 |

| Target | log2 fold change [1] | log2 fold change [2] | log2 fold change [3] | log2 fold change [4] | log2 fold change [5] |
| --- | --- | --- | --- | --- | --- |
| TPRG1L (UniProt Q5T0D9) | inactive: -0.158 | inactive: 0.132 | inactive: -0.026 | inactive: 0.153 | inactive: -0.13 |
| TOP1 (UniProt P11387) | inactive: -0.051 | inactive: 0.058 | inactive: 0.037 | inactive: 0.019 | inactive: 0.033 |
| TMEM62 (UniProt Q0P6H9) | inactive: 0.042 | inactive: 0.048 | inactive: 0.008 | inactive: 0.005 | inactive: 0.019 |
| TPM4 (UniProt P67936) | inactive: -0.001 | inactive: 0.166 | inactive: -0.018 | inactive: -0.023 | inactive: 0.048 |
| TPX2 (UniProt Q9ULW0) | inactive: 0.003 | active: -0.498 | inactive: -0.04 | inactive: 0.009 | inactive: 0.015 |
| TOMM70 (UniProt O94826) | inactive: -0.017 | inactive: -0.179 | inactive: 0.058 | inactive: -0.017 | inactive: 0.05 |
| TOR4A (UniProt Q9NXH8) | inactive: 0.015 | inactive: 0.012 | inactive: 0.047 | inactive: -0.001 | inactive: 0.008 |
| TMEM223 (UniProt A0PJW6) | inactive: -0.064 | inactive: -0.22 | inactive: 0.105 | inactive: -0.193 | inactive: -0.159 |
| TPI1 (UniProt P60174) | inactive: 0.032 | inactive: 0.124 | inactive: -0.014 | inactive: 0.024 | inactive: 0.073 |
| TNFRSF1B (UniProt P20333) | inactive: -0.02 | inactive: -0.104 | inactive: -0.048 | inactive: 0.02 | inactive: -0.049 |
| TOMM7 (UniProt Q9P0U1) | inactive: 0.005 | inactive: 0.024 | inactive: -0.018 | inactive: -0.027 | inactive: -0.004 |
| TPRKB (UniProt Q9Y3C4) | inactive: 0.015 | inactive: 0.074 | inactive: -0.015 | inactive: -0.008 | inactive: -0.017 |
| TMX1 (UniProt Q9H3N1) | inactive: 0.024 | inactive: 0.117 | inactive: 0.008 | inactive: -0.032 | inactive: 0.022 |
| TPM1 (UniProt H7BYY1) | inactive: 0.057 | inactive: 0.136 | inactive: -0.024 | inactive: -0.049 | inactive: 0.008 |
| TMX4 (UniProt Q9H1E5) | inactive: 0.005 | inactive: 0.079 | inactive: -0.044 | inactive: -0.005 | inactive: -0.06 |
| TNNI3K isoform 1 (UniProt Q59H18) | inactive: 0.012 | inactive: -0.483 | inactive: -0.06 | inactive: 0.118 | inactive: 0.002 |
| TRA2B (UniProt P62995) | inactive: 0.07 | inactive: 0.006 | inactive: -0.015 | inactive: -0.032 | inactive: -0.007 |
| TP53BP2 isoform 3 (UniProt Q13625) | inactive: -0.029 | inactive: -0.116 | inactive: -0.003 | inactive: 0.018 | inactive: 0 |
| TOMM34 (UniProt Q15785) | inactive: 0.02 | inactive: -0.179 | inactive: 0.052 | inactive: 0 | inactive: 0.056 |
| TOE1 (UniProt Q96GM8) | inactive: -0.003 | active: -0.359 | inactive: 0.041 | inactive: 0.002 | inactive: 0.043 |
| TMTC3 (UniProt Q6ZXV5) | inactive: 0.017 | inactive: 0.107 | inactive: 0.005 | inactive: -0.053 | inactive: 0.023 |
| TP53I3 (UniProt Q53FA7) | inactive: -0.099 | inactive: 0.085 | inactive: -0.03 | inactive: -0.032 | inactive: 0.02 |
| TMEM33 (UniProt P57088) | inactive: -0.039 | inactive: 0.014 | inactive: -0.024 | inactive: -0.05 | inactive: 0.017 |
| TMPPE (UniProt Q6ZT21) | inactive: 0.023 | inactive: 0.059 | inactive: -0.007 | inactive: -0.028 | inactive: 0.004 |
| TOM1L1 (UniProt O75674) | inactive: 0.008 | inactive: 0.099 | inactive: -0.027 | inactive: -0.01 | inactive: 0.014 |
| TOR1B (UniProt O14657) | inactive: 0.056 | inactive: 0.042 | inactive: 0.018 | inactive: -0.04 | inactive: -0.027 |

Exported tab-delimited: entries from further up.
Target	log2 fold change [1]	log2 fold change [2]	log2 fold change [3]	log2 fold change [4]	log2 fold change [5]
TOR4A (UniProt Q9NXH8)	inactive: 0.015	inactive: 0.012	inactive: 0.047	inactive: -0.001	inactive: 0.008
TMEM223 (UniProt A0PJW6)	inactive: -0.064	inactive: -0.22	inactive: 0.105	inactive: -0.193	inactive: -0.159
